Source: article PMC9375228
No constants are given. Whether binding was seen depends on the method and setting. Binding seen in cells or lysates may run through a third protein. Some results given as binding are weak or reduced against the parent protein; the word gives no strength. One block for each binder: values may come before it.

The chains behind the UniProt entries cited, without tags or fusion partners.
UniProt Q9VWN9: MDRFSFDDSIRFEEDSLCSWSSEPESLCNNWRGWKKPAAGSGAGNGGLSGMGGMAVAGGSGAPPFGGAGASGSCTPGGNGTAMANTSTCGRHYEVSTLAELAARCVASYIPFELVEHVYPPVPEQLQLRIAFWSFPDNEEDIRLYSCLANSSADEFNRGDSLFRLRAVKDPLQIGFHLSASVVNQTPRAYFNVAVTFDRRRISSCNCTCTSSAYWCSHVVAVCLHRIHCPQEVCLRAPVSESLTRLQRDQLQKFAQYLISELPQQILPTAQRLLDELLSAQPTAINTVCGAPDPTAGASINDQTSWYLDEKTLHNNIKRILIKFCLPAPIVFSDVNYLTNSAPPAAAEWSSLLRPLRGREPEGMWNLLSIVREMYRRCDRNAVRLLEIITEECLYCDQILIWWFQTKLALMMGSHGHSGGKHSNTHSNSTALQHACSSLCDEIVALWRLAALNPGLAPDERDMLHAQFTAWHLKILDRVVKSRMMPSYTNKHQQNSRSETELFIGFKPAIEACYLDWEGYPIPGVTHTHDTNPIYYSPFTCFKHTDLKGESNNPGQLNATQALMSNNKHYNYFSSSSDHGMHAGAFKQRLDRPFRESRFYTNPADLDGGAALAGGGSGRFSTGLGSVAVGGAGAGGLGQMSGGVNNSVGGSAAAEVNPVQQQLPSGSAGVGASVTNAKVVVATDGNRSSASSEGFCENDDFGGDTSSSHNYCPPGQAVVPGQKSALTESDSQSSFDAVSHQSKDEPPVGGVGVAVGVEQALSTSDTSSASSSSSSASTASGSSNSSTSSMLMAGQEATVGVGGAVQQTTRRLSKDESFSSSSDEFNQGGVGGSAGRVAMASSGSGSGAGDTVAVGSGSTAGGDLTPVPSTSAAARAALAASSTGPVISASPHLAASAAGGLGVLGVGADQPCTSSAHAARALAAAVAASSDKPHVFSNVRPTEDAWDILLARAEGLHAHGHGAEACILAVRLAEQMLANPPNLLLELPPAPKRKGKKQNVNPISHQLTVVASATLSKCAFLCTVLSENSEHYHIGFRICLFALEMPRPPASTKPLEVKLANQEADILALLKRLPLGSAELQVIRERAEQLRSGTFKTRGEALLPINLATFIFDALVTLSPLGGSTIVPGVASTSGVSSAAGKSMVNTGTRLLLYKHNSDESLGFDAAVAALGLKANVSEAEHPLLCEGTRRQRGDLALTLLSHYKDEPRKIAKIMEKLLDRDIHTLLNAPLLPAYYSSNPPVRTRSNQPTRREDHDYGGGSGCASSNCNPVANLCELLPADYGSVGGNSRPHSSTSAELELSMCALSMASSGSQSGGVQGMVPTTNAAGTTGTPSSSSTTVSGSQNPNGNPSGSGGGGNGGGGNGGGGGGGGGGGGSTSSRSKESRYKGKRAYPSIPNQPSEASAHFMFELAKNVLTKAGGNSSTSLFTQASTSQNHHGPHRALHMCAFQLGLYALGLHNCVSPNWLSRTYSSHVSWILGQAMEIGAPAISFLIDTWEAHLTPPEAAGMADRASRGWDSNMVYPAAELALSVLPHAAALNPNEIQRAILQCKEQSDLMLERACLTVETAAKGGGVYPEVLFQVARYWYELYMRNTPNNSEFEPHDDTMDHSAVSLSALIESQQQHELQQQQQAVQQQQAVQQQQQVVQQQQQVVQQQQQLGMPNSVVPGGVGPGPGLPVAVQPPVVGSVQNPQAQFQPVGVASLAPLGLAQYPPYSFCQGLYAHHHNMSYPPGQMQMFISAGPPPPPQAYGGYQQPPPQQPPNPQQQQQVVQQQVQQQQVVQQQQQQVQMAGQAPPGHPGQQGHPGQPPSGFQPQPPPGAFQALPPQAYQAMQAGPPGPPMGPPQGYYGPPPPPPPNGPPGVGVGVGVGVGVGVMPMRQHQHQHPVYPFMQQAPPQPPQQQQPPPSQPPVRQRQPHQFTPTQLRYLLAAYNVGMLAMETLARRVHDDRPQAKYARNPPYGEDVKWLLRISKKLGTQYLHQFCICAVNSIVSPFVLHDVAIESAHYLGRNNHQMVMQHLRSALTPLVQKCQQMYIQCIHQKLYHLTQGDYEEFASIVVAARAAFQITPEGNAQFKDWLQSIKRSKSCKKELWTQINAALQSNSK

Target: HA-Pldo^WT (Pelado, CG34401) (Drosophila) (UniProt Q9VWN9)
Test: co-IP; lysates of Drosophila S2 (S2R+) cells transfected with HA-Pldo^WT; immunoprecipitated with anti-HA at 4°C overnight, Agarose-A beads, 5 washes; Western blot

binding: binds
B1: Diaphanous (protein, UniProt P48608 1-1091)
chain: MSRHEKTKSTGGGLLDSLFGRPSKSKGGTISSGTLAHGGRPVSADNYVVPGVEDFEQYIQQLSVAELDAKFLEIIEDMNIPKDKREPLLAKSKEERQKMIMWHLKGKNSLERSANSRFEKPIDYVEYLQNGEHSTHKVYQCVESLRVALTSNPISWIKEFGVAGIGTIEKLLARSKNNASYEKIEFEAIRCLKAIMNNTWGLNVVLNPDQHSVVLLLAQSLDPRKPQTMCEALKLLASFCIVYERNGYEKVLRAITTIAATSFKASERFRPIVDALFASDQQDPKRDLACHSLIFINTLTNTPTDLNFRLHLRCEIMRMGLYDRLDEFTKIVEASNNENLQQHFKIFNEIREDDFEEFVQRFDNVTFNMDDATDCFDVLKNLVTDTTSEPYFLSILQHLLYIRDDFYFRPAYYQLIEECISQIVFHKGYCDPNFENRNFNIDTSLLLDDIVEKAKAKESKRSEEYEKKIEQLESAKQEAEAKAAHLEEKVKLMEANGVAAPSPNKLPKVNIPMPPPPPGGGGAPPPPPPPMPGRAGGGPPPPPPPPMPGRAGGPPPPPPPPGMGGPPPPPMPGMMRPGGGPPPPPMMMGPMVPVLPHGLKPKKKWDVKNPMKRANWKAIVPAKMSDKAFWVKCQEDKLAQDDFLAELAVKFSSKPVKKEQKDAVDKPTTLTKKNVDLRVLDSKTAQNLAIMLGGSLKHLSYEQIKICLLRCDTDILSSNILQQLIQYLPPPEHLKRLQEIKAKGEPLPPIEQFAATIGEIKRLSPRLHNLNFKLTYADMVQDIKPDIVAGTAACEEIRNSKKFSKILELILLLGNYMNSGSKNEAAFGFEISYLTKLSNTKDADNKQTLLHYLADLVEKKFPDALNFYDDLSHVNKASRVNMDAIQKAMRQMNSAVKNLETDLQNNKVPQCDDDKFSEVMGKFAEECRQQVDVLGKMQLQMEKLYKDLSEYYAFDPSKYTMEEFFADIKTFKDAFQAAHNDNVRVREELEKKRRLQEAREQSAREQQERQQRKKAVVDMDAPQTQEGVMDSLLEALQTGSAFGQRNRQARRQRPAGAERRAQLSRSRSRTRVTNGQLMTREMILNEVLGSA

binding: binds
B2: Chic/Profilin (protein, UniProt P25843 1-126)
chain: MSWQDYVDNQLLASQCVTKACIAGHDGNIWAQSSGFEVTKEELSKLISGFDQQDGLTSNGVTLAGQRYIYLSGTDRVVRAKLGRSGVHCMKTTQAVIVSIYEDPVQPQQAASVVEKLGDYLITCGY
